Consider 6 substances from US9458194B2 (Lubrizol Advanced Materials, Inc., priority 2013, dated 2016).

The same purity stands for every peptide and may come from a single statement.

Series [1] is described as follows: general procedure: Fmoc solid-phase peptide synthesis; AM-MBHA. As to conditions: whole synthesis, gradients of MeCN (+0.07% TFA) in H2O (+0.1% TFA), scale of the general procedure 15 mmol.
A short description of series [2]: general procedure: Fmoc solid-phase peptide synthesis; pMBHA. As to conditions: whole synthesis, gradients of MeCN (+0.07% TFA) in H2O (+0.1% TFA), scale 15 mmol.
Series [3] can be described thus: general procedure: Fmoc solid-phase peptide synthesis; 2-chlorotrityl. As to conditions: whole synthesis, gradients of MeCN (+0.07% TFA) in H2O (+0.1% TFA), scale 33.6 mmol.

As to “Ac-Gly-L-Gln-L-Lys(Ac-Gly-L-Gln)-4-Abz-NH2”, the “crude HPLC purity” value in series [1] is given as “exceeding 80%”.
Take “Ac-L-Asn-L-Thr-L-Lys(Ac-L-Asn-L-Thr)-4-Abz-NH2”: the “crude HPLC purity” value in series [2] is reported as “exceeding 80%”.
Consider “Ac-L-Asp-L-Val-L-Lys-L-Tyr-OH (DVKY; N-acetyl)”, for which the “crude HPLC purity” value in series [3] is reported as “exceeding 80%”.
“Ac-L-Lys-L-Cit-L-Lys(Ac-L-Lys-L-Cit)-4-Abz-NH2”: the “crude HPLC purity” value in series [2] is “exceeding 80%”.
On the same count and under the same terms, the same measure for “Ac-L-Lys-L-His-L-Lys(Ac-L-Lys-L-His)-4-Abz-NH2”: “exceeding 80%”; for “Ac-L-Lys-L-Tyr-L-Lys(Ac-L-Lys-L-Tyr)-4-Abz-NH2”: “exceeding 80%”.
